From publication doi:10.1101/2024.07.22.24310683
These are yes or no findings as the source states them, for the method shown. Binding seen in cells or lysates may run through a third protein. Some results given as binding are weak or reduced against the parent protein; the word gives no strength.

The chains behind the UniProt entries cited, without tags or fusion partners. Where a name states a change or a piece, a line headed by the entry shows the natural chain unless it says otherwise.
UniProt Q96CW1, whole entry: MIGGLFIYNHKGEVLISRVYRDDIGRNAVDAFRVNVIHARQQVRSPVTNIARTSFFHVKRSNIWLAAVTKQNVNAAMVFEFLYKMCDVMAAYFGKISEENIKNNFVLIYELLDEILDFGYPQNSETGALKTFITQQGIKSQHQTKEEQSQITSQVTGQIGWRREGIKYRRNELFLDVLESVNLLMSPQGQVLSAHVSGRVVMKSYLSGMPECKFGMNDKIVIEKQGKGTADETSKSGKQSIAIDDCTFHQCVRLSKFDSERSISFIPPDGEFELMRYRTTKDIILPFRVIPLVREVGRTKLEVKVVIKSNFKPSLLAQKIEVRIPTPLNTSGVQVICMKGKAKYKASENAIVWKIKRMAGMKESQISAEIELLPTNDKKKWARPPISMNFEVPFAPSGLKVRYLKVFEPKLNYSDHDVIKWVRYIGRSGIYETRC
UniProt P63010, whole entry: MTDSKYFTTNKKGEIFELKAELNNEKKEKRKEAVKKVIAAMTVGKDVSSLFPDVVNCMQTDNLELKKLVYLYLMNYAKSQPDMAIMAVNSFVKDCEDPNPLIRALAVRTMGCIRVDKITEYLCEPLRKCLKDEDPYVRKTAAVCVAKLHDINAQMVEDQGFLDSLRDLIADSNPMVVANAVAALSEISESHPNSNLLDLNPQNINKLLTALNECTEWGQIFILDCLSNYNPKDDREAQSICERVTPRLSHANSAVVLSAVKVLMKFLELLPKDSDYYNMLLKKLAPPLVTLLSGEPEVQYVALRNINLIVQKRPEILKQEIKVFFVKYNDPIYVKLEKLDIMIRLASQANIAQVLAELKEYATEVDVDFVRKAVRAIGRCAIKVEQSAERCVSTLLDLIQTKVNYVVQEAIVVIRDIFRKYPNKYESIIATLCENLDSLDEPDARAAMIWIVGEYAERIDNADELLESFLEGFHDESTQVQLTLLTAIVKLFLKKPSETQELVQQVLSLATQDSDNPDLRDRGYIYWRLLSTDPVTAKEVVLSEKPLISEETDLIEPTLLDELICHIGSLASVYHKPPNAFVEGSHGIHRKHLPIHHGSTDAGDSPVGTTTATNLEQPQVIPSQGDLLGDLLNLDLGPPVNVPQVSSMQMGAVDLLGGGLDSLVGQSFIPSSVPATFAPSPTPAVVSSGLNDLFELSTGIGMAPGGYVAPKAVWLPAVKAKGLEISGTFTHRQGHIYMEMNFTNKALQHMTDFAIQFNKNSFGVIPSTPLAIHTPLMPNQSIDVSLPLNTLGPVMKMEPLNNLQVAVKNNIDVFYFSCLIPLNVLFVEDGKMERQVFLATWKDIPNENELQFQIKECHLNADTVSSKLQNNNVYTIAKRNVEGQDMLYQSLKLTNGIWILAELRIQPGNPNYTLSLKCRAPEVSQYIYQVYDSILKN

Columns and labels:
Assay in all cases: co-IP
[1] = target: HA-tagged AP2σ2 p.Arg10Gln variant (human) (UniProt P53680)
[2] = target: HA-tagged AP2σ2 R15L variant (FHH3-associated) (human) (UniProt P53680)
[3] = target: HA-tagged AP2σ2 p.Arg61His variant (human) (UniProt P53680)
[4] = target: HA-tagged AP2σ2 p.Arg10Trp variant (human) (UniProt P53680)
[5] = target: HA-tagged AP2σ2 p.Lys18Glu variant (human) (UniProt P53680)
[6] = target: HA-tagged AP2σ2 p.Lys18Asn variant (human) (UniProt P53680)
[7] = target: HA-tagged wild-type AP2σ2 (Adaptor-Related Protein Complex 2 Sigma-1 Subunit) (human) (UniProt P53680)

Measured: binding

AP2μ2 subunit of the AP2 complex (from UniProt Q96CW1 1-435)
binds: all assays above

AP2β2 subunit of the AP2 complex (AP2 subunit beta-1) (from UniProt P63010 1-937)
binds: [2] | [5] | [6] | [7]
